Assay results reported in article PMC6079634.

Chains of the proteins cited; added tags and fusions are not shown. Lines headed by an entry give the natural chain unless they say otherwise; changes in a name come on top. Residues count along the entry.
UniProt O00571: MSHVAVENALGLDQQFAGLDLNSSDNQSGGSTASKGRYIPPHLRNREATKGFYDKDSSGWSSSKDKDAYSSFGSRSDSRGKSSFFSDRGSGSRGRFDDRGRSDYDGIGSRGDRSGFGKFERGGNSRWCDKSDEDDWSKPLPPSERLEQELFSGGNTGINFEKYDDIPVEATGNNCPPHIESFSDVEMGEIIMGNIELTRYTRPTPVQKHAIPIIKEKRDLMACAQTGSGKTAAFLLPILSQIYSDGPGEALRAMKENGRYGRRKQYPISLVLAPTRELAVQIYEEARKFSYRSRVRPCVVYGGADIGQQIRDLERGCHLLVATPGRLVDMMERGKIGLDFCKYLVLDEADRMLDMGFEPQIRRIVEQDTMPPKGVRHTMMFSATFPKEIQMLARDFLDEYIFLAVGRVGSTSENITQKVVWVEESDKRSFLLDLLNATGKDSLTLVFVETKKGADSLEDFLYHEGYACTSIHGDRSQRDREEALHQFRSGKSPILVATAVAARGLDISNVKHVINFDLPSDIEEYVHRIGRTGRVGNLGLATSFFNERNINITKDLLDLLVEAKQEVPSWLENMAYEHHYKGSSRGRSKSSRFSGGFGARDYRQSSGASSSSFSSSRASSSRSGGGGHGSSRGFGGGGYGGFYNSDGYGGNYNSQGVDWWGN
UniProt Q02880: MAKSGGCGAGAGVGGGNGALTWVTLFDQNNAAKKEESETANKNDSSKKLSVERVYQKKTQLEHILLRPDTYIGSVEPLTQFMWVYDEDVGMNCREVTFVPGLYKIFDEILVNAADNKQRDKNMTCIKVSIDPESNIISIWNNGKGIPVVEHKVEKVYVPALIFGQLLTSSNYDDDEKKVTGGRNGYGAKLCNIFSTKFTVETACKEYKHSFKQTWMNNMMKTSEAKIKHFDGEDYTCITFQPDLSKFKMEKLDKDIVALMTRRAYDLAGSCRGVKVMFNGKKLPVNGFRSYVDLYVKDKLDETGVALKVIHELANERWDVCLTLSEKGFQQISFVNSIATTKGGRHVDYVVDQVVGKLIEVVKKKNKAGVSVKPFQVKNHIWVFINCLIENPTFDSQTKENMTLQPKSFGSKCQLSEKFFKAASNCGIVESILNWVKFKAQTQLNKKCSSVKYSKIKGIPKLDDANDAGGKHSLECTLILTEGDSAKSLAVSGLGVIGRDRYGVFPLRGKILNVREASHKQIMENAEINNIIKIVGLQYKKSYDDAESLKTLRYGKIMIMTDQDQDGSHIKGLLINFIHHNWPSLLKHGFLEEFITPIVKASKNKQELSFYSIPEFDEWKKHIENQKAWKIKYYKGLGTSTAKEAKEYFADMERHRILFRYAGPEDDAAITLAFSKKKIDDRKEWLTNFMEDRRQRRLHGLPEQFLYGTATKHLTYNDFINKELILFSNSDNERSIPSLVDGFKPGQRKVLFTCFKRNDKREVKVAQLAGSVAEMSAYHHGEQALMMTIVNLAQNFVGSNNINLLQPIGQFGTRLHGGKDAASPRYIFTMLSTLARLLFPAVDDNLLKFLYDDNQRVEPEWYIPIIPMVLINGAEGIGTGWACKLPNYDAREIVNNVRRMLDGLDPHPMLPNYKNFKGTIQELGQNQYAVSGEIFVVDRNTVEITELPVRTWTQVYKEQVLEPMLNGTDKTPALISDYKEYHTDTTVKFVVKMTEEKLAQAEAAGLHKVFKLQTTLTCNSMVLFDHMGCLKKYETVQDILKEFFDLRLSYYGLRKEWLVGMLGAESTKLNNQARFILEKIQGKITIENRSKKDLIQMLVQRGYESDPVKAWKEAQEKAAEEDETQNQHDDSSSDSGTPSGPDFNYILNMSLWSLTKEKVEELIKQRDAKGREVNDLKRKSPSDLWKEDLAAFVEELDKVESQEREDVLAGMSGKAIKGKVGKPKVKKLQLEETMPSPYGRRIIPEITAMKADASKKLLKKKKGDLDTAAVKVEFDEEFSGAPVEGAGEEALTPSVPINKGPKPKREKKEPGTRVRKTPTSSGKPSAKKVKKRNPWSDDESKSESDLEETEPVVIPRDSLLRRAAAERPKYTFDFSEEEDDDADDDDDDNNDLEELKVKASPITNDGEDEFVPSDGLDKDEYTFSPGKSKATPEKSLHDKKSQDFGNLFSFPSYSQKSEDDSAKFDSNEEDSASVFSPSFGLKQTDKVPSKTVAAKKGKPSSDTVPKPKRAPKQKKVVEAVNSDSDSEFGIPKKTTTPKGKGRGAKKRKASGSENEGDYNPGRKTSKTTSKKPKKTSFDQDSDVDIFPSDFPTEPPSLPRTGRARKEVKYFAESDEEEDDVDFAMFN
UniProt Q15717: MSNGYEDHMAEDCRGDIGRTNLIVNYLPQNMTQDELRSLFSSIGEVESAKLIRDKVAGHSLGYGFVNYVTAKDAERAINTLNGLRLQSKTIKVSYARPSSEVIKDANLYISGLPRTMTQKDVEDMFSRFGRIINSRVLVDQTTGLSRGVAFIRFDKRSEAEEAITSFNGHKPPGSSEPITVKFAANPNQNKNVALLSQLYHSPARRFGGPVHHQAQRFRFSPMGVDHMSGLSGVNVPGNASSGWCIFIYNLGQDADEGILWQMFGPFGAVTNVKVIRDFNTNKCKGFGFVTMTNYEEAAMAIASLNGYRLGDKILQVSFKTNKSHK
UniProt P04406: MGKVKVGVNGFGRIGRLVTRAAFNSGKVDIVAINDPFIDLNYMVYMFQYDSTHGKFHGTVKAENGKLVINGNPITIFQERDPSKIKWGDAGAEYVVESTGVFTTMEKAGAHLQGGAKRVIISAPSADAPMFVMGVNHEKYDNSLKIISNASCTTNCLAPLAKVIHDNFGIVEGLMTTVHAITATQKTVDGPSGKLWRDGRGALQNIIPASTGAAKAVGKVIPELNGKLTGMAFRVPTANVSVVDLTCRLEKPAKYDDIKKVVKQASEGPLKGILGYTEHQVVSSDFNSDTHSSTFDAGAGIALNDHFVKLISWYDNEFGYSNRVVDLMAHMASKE
UniProt Q09161: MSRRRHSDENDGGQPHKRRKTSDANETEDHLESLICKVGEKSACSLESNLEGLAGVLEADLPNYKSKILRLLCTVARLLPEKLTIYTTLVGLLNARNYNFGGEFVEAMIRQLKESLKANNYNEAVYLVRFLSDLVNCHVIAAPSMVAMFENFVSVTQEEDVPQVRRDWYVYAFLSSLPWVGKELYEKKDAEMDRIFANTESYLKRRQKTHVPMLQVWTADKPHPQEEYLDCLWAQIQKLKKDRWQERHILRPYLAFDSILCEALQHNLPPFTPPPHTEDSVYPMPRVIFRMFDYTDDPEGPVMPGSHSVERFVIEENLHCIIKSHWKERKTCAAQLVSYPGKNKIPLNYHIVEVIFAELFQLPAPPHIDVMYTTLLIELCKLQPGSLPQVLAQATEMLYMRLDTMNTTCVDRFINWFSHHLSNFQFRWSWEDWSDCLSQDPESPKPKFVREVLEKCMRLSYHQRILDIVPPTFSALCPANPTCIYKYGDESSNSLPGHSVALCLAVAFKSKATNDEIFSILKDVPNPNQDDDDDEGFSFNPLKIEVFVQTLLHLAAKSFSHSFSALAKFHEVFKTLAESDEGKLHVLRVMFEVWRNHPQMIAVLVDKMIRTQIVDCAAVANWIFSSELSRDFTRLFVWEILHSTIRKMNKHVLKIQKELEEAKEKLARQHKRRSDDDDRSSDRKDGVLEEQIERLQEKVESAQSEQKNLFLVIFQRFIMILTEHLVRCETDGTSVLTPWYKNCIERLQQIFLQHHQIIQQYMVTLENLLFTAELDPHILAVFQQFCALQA
UniProt Q07157: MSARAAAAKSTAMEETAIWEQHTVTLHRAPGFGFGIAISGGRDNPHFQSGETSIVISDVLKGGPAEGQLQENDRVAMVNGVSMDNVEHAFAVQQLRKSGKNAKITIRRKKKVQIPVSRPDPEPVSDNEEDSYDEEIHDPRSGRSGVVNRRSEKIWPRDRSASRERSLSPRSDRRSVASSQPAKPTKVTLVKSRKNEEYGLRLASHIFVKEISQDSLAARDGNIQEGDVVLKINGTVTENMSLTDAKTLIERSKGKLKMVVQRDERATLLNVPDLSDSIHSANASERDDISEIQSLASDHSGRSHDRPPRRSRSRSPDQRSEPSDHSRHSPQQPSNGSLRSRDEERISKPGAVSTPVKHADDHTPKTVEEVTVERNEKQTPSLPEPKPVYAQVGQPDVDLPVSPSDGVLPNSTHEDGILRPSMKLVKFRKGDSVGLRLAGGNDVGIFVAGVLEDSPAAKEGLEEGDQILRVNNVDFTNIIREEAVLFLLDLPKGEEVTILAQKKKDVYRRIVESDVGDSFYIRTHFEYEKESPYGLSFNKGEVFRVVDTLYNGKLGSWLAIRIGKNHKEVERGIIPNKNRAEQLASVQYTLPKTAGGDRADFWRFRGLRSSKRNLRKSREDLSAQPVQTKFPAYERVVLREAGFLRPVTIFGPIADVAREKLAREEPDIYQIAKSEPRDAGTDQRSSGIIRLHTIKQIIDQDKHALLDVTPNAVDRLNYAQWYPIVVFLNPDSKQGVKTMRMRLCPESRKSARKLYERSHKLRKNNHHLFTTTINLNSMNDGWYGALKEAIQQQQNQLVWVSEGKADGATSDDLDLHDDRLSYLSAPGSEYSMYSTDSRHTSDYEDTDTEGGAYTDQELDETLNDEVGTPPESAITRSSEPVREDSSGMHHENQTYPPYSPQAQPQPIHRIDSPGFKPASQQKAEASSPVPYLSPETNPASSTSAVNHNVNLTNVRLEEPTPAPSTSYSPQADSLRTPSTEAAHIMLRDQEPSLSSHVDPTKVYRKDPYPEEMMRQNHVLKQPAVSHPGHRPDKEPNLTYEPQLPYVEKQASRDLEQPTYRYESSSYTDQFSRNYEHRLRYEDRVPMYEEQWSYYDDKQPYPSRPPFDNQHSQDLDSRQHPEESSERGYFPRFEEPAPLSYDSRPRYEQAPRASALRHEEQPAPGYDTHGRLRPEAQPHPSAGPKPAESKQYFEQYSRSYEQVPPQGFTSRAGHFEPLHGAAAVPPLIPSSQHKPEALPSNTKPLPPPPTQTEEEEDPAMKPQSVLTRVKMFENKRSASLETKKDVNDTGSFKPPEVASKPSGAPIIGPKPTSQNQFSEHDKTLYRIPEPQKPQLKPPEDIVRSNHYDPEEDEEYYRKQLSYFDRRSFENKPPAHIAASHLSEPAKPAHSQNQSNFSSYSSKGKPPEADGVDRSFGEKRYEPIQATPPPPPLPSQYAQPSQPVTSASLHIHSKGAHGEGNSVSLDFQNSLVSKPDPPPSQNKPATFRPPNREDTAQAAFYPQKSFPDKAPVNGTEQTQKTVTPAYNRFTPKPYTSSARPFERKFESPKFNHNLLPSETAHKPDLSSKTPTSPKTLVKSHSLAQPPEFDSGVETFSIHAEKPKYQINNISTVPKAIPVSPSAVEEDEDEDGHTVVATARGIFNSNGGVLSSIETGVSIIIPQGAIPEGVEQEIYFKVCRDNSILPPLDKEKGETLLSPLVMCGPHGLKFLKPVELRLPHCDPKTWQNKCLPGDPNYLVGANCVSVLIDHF
UniProt O75367: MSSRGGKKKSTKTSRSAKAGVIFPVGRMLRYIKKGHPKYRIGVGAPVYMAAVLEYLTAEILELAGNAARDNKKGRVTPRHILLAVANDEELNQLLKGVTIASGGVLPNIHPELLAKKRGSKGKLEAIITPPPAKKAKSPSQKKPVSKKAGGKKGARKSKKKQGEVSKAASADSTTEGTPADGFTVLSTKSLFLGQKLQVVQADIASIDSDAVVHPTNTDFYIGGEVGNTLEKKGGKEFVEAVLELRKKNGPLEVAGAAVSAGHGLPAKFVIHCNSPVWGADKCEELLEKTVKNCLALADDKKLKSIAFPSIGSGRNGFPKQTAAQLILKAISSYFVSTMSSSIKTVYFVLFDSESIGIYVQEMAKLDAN
UniProt O75475: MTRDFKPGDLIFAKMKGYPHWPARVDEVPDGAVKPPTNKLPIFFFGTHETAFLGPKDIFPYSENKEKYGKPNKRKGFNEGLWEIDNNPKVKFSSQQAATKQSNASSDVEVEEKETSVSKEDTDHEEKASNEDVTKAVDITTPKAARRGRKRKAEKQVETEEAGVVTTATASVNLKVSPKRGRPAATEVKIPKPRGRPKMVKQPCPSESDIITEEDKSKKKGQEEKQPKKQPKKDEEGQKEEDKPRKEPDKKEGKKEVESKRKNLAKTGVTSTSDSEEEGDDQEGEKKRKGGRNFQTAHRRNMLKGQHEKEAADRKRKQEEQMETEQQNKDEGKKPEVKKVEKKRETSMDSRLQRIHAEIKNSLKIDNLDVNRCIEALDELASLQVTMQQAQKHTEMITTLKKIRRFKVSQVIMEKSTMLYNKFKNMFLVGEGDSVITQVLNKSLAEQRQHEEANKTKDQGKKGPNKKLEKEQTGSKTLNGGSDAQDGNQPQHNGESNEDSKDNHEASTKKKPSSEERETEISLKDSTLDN
UniProt P23284, residues 34-216: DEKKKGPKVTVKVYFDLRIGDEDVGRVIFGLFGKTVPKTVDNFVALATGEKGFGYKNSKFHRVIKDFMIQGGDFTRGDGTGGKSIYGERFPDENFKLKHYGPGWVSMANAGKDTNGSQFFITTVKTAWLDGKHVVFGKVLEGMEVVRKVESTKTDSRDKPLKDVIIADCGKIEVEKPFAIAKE

Legend:
[1] = target: T1, GB1‐OCLN_C recombinant protein (occludin C‐terminal domain, 271‐522) (human) (UniProt Q16625); assay: affinity purification with mass spectrometry; GB1‐OCLN_N, GB1‐OCLN_C or GB1‐6His control adsorbed onto IgG beads; 1321N1 cell lysate (cells treated with 5 mM CaCl2 and 4 μM A23187 for 15 min before lysis; 1 mg/ml) incubated O/N at 4°C; eluted by boiling in Laemmli buffer, SDS‐PAGE, in-gel digestion, ESI‐MS (Mascot, Swiss‐Prot); only the target purified
T1 sequence: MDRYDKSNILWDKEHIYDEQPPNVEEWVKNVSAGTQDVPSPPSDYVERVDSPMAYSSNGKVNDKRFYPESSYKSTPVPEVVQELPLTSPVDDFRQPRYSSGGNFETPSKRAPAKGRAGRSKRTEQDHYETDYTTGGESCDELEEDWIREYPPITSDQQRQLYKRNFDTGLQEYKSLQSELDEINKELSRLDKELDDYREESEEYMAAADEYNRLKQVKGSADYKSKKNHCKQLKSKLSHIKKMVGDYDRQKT

[2] = target: T2, GB1‐OCLN_N recombinant protein (occludin N‐terminal domain, 1‐65) (human) (UniProt Q16625); assay: as above
T2 sequence: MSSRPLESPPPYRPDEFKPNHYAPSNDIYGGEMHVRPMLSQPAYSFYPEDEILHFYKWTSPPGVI

Molecule	binding [1]	binding [2]
ATP‐dependent RNA helicase DDX3X (from UniProt O00571 1-662)	binds	–
DNA topoisomerase 2‐beta (from UniProt Q02880 1-1626)	–	binds
ELAV‐like protein 1 (from UniProt Q15717 1-326)	–	binds
Glyceraldehyde‐3‐phosphate dehydrogenase (from UniProt P04406 1-335)	binds	–
Hornerin (from UniProt Q86YZ3 1-2850)	binds	–
Interleukin enhancer‐binding factor 2 (from UniProt Q12905 1-390)	–	binds
Myosin‐10 (from UniProt P35580 1-1976)	–	binds
Nuclear cap‐binding protein subunit 1 (from UniProt Q09161 1-790)	–	binds
Nucleolar protein 56 (from UniProt O00567 1-594)	–	binds
Nucleophosmin (from UniProt P06748 1-294)	–	binds
Putative pre‐mRNA‐splicing factor ATP‐dependent RNA helicase DHX15 (from UniProt O43143 1-795)	–	binds
RNA‐binding motif protein, X chromosome (from UniProt P38159 1-391)	–	binds
SWI/SNF‐related matrix‐associated actin‐dependent regulator of chromatin subfamily A member 5 (from UniProt O60264 1-1052)	–	binds
Tight junction protein ZO‐1 (from UniProt Q07157 1-1748)	binds	–
Non‐POU domain‐containing octamer‐binding protein (protein, UniProt Q15233 1-471) MQSNKTFNLEKQNHTPRKHHQHHHQQQHHQQQQQQPPPPPIPANGQQASSQNEGLTIDLKNFRKPGEKTFTQRSRLFVGNLPPDITEEEMRKLFEKYGKAGEVFIHKDKGFGFIRLETRTLAEIAKVELDNMPLRGKQLRVRFACHSASLTVRNLPQYVSNELLEEAFSVFGQVERAVVIVDDRGRPSGKGIVEFSGKPAARKALDRCSEGSFLLTTFPRPVTVEPMDQLDDEEGLPEKLVIKNQQFHKEREQPPRFAQPGSFEYEYAMRWKALIEMEKQQQDQVDRNIKEAREKLEMEMEAARHEHQVMLMRQDLMRRQEELRRMEELHNQEVQKRKQLELRQEEERRRREEEMRRQQEEMMRRQQEGFKGTFPDAREQEIRMGQMAMGGAMGINNRGAMPPAPVPAGTPAPPGPATMMPDGTLGLTPPTTERFGQAATMEGIGAIGGTPPAFNRAAPGAEFAPNKRRRY	–	binds
Heterogeneous nuclear ribonucleoprotein L (protein, UniProt P14866 1-589) MSRRLLPRAEKRRRRLEQRQQPDEQRRRSGAMVKMAAAGGGGGGGRYYGGGSEGGRAPKRLKTDNAGDQHGGGGGGGGGAGAAGGGGGGENYDDPHKTPASPVVHIRGLIDGVVEADLVEALQEFGPISYVVVMPKKRQALVEFEDVLGACNAVNYAADNQIYIAGHPAFVNYSTSQKISRPGDSDDSRSVNSVLLFTILNPIYSITTDVLYTICNPCGPVQRIVIFRKNGVQAMVEFDSVQSAQRAKASLNGADIYSGCCTLKIEYAKPTRLNVFKNDQDTWDYTNPNLSGQGDPGSNPNKRQRQPPLLGDHPAEYGGPHGGYHSHYHDEGYGPPPPHYEGRRMGPPVGGHRRGPSRYGPQYGHPPPPPPPPEYGPHADSPVLMVYGLDQSKMNCDRVFNVFCLYGNVEKVKFMKSKPGAAMVEMADGYAVDRAITHLNNNFMFGQKLNVCVSKQPAIMPGQSYGLEDGSCSYKDFSESRNNRFSTPEQAAKNRIQHPSNVLHFFNAPLEVTEENFFEICDELGVKRPSSVKVFSGKSERSSSGLLEWESKSDALETLGFLNHYQMKNPNGPYPYTLKLCFSTAQHAS	–	binds
Nucleolar protein 58 (protein, UniProt Q9Y2X3 1-529) MLVLFETSVGYAIFKVLNEKKLQEVDSLWKEFETPEKANKIVKLKHFEKFQDTAEALAAFTALMEGKINKQLKKVLKKIVKEAHEPLAVADAKLGGVIKEKLNLSCIHSPVVNELMRGIRSQMDGLIPGVEPREMAAMCLGLAHSLSRYRLKFSADKVDTMIVQAISLLDDLDKELNNYIMRCREWYGWHFPELGKIISDNLTYCKCLQKVGDRKNYASAKLSELLPEEVEAEVKAAAEISMGTEVSEEDICNILHLCTQVIEISEYRTQLYEYLQNRMMAIAPNVTVMVGELVGARLIAHAGSLLNLAKHAASTVQILGAEKALFRALKSRRDTPKYGLIYHASLVGQTSPKHKGKISRMLAAKTVLAIRYDAFGEDSSSAMGVENRAKLEARLRTLEDRGIRKISGTGKALAKTEKYEHKSEVKTYDPSGDSTLPTCSKKRKIEQVDKEDEITEKKAKKAKIKVKVEEEEEEKVAEEEETSVKKKKKRGKKKHIKEEPLSEEEPCTSTAIASPEKKKKKKKKRENED	–	binds
Dermcidin (protein, UniProt P81605 20-110) YDPEAASAPGSGNPCHEASAAQKENAGEDPGLARQAPKPRKQRSSLLEKGLDGAKKAVGGLGKLGKDAVEDLESVGKGAVHDVKDVLDSVL	–	binds

Further lines, results first:

binding [1]	binding [2]	Molecule
–	binds	Core histone macro‐H2A.1 (from UniProt O75367 1-369)
–	binds	E3 ubiquitin‐protein ligase NEDD4 (from UniProt P46934 1-1319)
–	binds	Nucleolar RNA helicase 2 (from UniProt Q9NR30 1-783)
–	binds	PC4 and SFRS1‐interacting protein (from UniProt O75475 1-530)
–	binds	Peptidyl‐prolyl cis‐trans isomerase B (from UniProt P23284 34-216)
binds	–	Poly(rC)‐binding protein 1 (from UniProt Q15365 1-356)
binds	–	Prelamin‐A/C (from UniProt P02545 1-646)
–	binds	U5 small nuclear ribonucleoprotein 200 kDa helicase (from UniProt O75643 1-2136)
–	binds	Myosin regulatory light chain 12A (protein, UniProt P19105 1-171) MSSKRTKTKTKKRPQRATSNVFAMFDQSQIQEFKEAFNMIDQNRDGFIDKEDLHDMLASLGKNPTDEYLDAMMNEAPGPINFTMFLTMFGEKLNGTDPEDVIRNAFACFDEEATGTIQEDYLRELLTTMGDRFTDEEVDELYREAPIDKKGNFNYIEFTRILKHGAKDKDD

These are yes or no findings as the source states them, for the method shown. In cells and extracts the contact can be indirect. Here binding means that the protein was enriched with, or labelled near, the bait; the list need not be complete.
